Assay results reported in publication PMC4349623 (BMC Biochemistry, 2015).
Some values come without a unit; they compare only within their column.

Experiments:
[1] = ANS steady-state fluorescence (hydrophobicity probe); assay type: biochemical
From the text: It is well known that the exposure of the hydrophobic patches of CaM is essential for target protein recognition. Such hydrophobic exposure can be photometrically monitored by its interaction with extrinsic 1-anilinonaphthalene 8-sulfonate (ANS) and 2-p-toluidinyl-naphthalene-6-sulfonate (TNS) molecules. These two fluorophores have been widely used as a probe for measuring hydrophobicity. ANS is a fluorescent dye which emits very weak fluorescence in water due to its excited charge transfer (CT) state that is quenched easily by water molecules. […] ANS fluorescence increases dramatically in a hydrophobic environment or when the rotational motion of its phenylamino group is restricted. […] The fluorescence increased when Ca^2+ was included in the mixture.
ANS fluorescence was excited at 350 nm.
Absorption measurements were carried out using a UV-1800 double-beam spectrometer (Shimadzu, Kyoto, Japan). The fluorescence spectra were recorded on a FluoroMax-3P (Horiba Scientific) equipped with a temperature control unit. For intrinsic Trp fluorescence, the excitation wavelength of 295 nm was chosen. […] The samples containing ANS or dansyl-labeled proteins were excited at 350 and 370 nm, respectively. The slit widths of 2 and 5 nm were typically chosen for excitation and emission, respectively, to eliminate photobleaching.

[2] = ANS fluorescence lifetime (TCSPC); conditions: for ANS lifetime τ 1, Component 1 / ANS lifetime τ 2, Component 2 / fractional intensity f 1, Component 1 / fractional intensity f 2, Component 2: 2 mM Ca^2+, 20°C, average; for Average lifetime <τ>: calculated from Eq. 2
CaM = test: Stern-Volmer quenching of CaM-bound ANS by acrylamide; conditions: data not shown
From the text: Given that steady state fluorescence cannot differentiate the intensity contribution from individual ANS molecules, we utilized time-correlated single-photon counting (TCSPC) spectrometry to measure the ANS fluorescence decay. […] The data was best fit with a three-exponential-decay function. The shortest lifetime (τ3 = ~0.3 ns) was assigned to that of free ANS molecules, which was confirmed by using an ANS solution alone. Note that this lifetime reaches the detection limitation of our instrument and therefore, it cannot be determined precisely. […] The fitting also provided the fractional (or relative amplitude), fs, which weights the “amount” of the emitting species, and the normalized pre-exponential value, Bs, which provides the relative concentration of each species. […] In other words, the long lifetime component of ANS is one order less quenched by acrylamide.
For a quenching that is purely by collision, the steady-state and lifetime Stern-Volmer quenching equation can be expressed as4 <τo>/<τ>=1+KsvQandKsv=kqxτ0 where τ and τo are the lifetime in the presence and absence of the quencher, and kq is the quenching rate constant.

[3] = without Orai-CMBD, 5 μM protein, 50 μM ANS

Compound | ANS fluorescence λmax ([1]; Ca^2+-bound protein, absence of Orai-CMBD, excitation […] nm) | B1 (normalized pre-exponential) ([2]; Ca^2+, [ANS]/[CaM] ratio 0.5) | B2 (normalized pre-exponential) ([2]; Ca^2+, [ANS]/[CaM] ratio 0.5) | f1 ([2]; Ca^2+, [ANS]/[CaM] ratio 0.5) | f2 ([2]; Ca^2+, [ANS]/[CaM] ratio 0.5) | ANS lifetime τ 1, Component 1 ([2]; with Orai-CMBD) | ANS lifetime τ 2, Component 2 ([2]; with Orai-CMBD) | fractional intensity f 1, Component 1 ([2]; with Orai-CMBD) | fractional intensity f 2, Component 2 ([2]; with Orai-CMBD) | Average lifetime <τ> ([2]; with Orai-CMBD) | ANS lifetime τ 1, Component 1 [2, 3] | ANS lifetime τ 2, Component 2 [2, 3] | fractional intensity f 1, Component 1 [2, 3] | fractional intensity f 2, Component 2 [2, 3] | Average lifetime <τ> ([2]; without Orai-CMBD) | KSV(τ2) (CaM; long lifetime of bound ANS) | KSV(τ1) (CaM; short lifetime of bound ANS) | ANS fluorescence λmax ([1]; ANS alone) | shortest lifetime τ3 (free ANS) ([2]; free ANS, at detection limit of instrument)
Calmodulin [CaM] | 480 nm | 0.33 | 0.16 | 0.47 | 0.49 | 6.8 ns | 16.9 ns | 0.20 | 0.66 | 13.1 ns | 6.4 ns | 13.1 ns | 0.44 | 0.53 | 9.0 ns | – | – | – | –
O=S(=O)(O)c1cccc2cccc(Nc3ccccc3)c12 [ANS, 1-anilinonaphthalene 8-sulfonate] | – | – | – | – | – | – | – | – | – | – | – | – | – | – | – | 0.25 ± 0.05 M⁻¹ | 1.4 ± 0.2 M⁻¹ | 520 nm | ~ 0.3 ns
